PubChem BioAssay AID504804 – Drosophila RNAi Screening Center | 2011
The screen tested about 19,000 reagents; shown is an unselected part of those that have a named target and a result. Of all reagents, 47 (0.25%) got an active call. 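Signals are raw, not normalised; exact z-scores behind calls not deposited; actives needed confirmation, so some wells reaching 2 SD are inactive.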 Unmarked entries are inactive.

Test: 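Fly genes whose loss lessens doxorubicin-driven cell death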 (primary screen)
Cells: Drosophila Kc cells
Reagent: long dsRNA against Drosophila genes, 0.5 µg dsRNA per well
Timing: 96 h (48 h knock-down, then 48 h drug)
Conditions: doxorubicin 5 µg/ml for 48 h, added 48 h after dsRNA
Measured: 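Luminescent ATP counts per replicate, not normalised, reflecting viable cells after 48 h dsRNA knock-down followed by 48 h of 5 µg/ml doxorubicin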
Reading the numbers: raw ATP luminescence: higher = more viable cells, protection from doxorubicin
Hit rule: 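Active when both duplicate wells lie at least 2 SD above the plate mean and protection is confirmed by rescreening and independent dsRNAs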

For t (tan) [SID104197607], what does the deposit list?
raw ATP luminescence, replicate 1: 3.20e5; raw ATP luminescence, replicate 2: 3.13e5

For Gr85a (Gustatory receptor 85a) [SID104192552], what does the deposit list?
raw ATP luminescence, replicate 1: 75470; raw ATP luminescence, replicate 2: 73147

With Mur89F (Mucin related 89F) [SID104195336], what does the deposit list?
raw ATP luminescence, replicate 1: 60570; raw ATP luminescence, replicate 2: 63200

What did the screen give for pHCl-2 (pH-sensitive chloride channel 2) [SID104194098]?
raw ATP luminescence, replicate 1: 45700; raw ATP luminescence, replicate 2: 54600

With CG14598 [SID104192333], how do the results read?
raw ATP luminescence, replicate 1: 70063; raw ATP luminescence, replicate 2: 59927

For mesh [SID104194264], how do the results read?
raw ATP luminescence, replicate 1: 1.81e5; raw ATP luminescence, replicate 2: 1.61e5

With mesh [SID104194890], what was measured?
raw ATP luminescence, replicate 1: 53430; raw ATP luminescence, replicate 2: 49430

With mesh [SID104194891], how do the results read?
raw ATP luminescence, replicate 1: 49450; raw ATP luminescence, replicate 2: 48380

Which result is listed for CG5509 [SID104195614]?
raw ATP luminescence, replicate 1: 51650; raw ATP luminescence, replicate 2: 77683

Which result is listed for Dpy-30L1 (Dpy-30-like 1) [SID104182751]?
raw ATP luminescence, replicate 1: 31753; raw ATP luminescence, replicate 2: 44703

How did the screen score Tdc1 (Tyrosine decarboxylase 1) [SID104184734]?
raw ATP luminescence, replicate 1: 91363; raw ATP luminescence, replicate 2: 83753

Which result is listed for CG15459 [SID104200322]?
raw ATP luminescence, replicate 1: 3.49e5; raw ATP luminescence, replicate 2: 3.35e5

As entered above.
CG14598 [SID104192333], raw ATP luminescence, replicate 2: 59927
Tdc1 (Tyrosine decarboxylase 1) [SID104184734], raw ATP luminescence, replicate 2 → 83753
